PubChem BioAssay AID1159584 – Peter MacCallum Cancer Centre – 2016
Here is an unselected part of about 18,000 deposited reagents. Not all columns of the deposit are shown. No sequences are given here. The record does not give: the amount of reagent, the time to read-out.

- Test: 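Knock-downs that harm CDH1-null cells more than parental MCF10A cells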 (primary screen)
- System: human MCF10A breast epithelial cells, parental and CDH1-null
- Reagents: siRNA against human genes
- Measurement: 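Cell viability by CellTiter-Glo ATP luminescence, each line scaled to the mean of mock wells across plates, then CDH1-null over parental ratio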
- Direction: CDH1-null / parental viability ratio: higher = CDH1-null cells survive relatively better than parental

| Target gene | CDH1-null / parental viability ratio |
| --- | --- |
| RNASE8 | 0.97 |
| OR5A2 | 1.09 |
| BAGE2 | 0.89 |
| STARD7-AS1 | 0.78 |
| ADAP2 | 1.22 |
| NSG1 | 1.14 |
| PADI3 | 0.7 |
| JUP | 0.96 |
| H2AC18 | 0.75 |
| SFXN3 | 0.9 |
| ELOVL2 | 1.11 |
| LHCGR | 1.49 |
| SERPINB7 | 1.02 |
| EXOC6 | 1.17 |
| HPSE | 1.09 |
| GRIPAP1 | 1.19 |

3 consecutive records from above, quoted:
| Target gene | CDH1-null / parental viability ratio |
| --- | --- |
| ELOVL2 | 1.11 |
| LHCGR | 1.49 |
| SERPINB7 | 1.02 |

Additional records:
| Target gene | CDH1-null / parental viability ratio |
| --- | --- |
| IL13 | 0.81 |
| CDCA8 | 1.44 |
| RDH8 | 0.9 |
| PHAX | 0.95 |
| CHTF8 | 1.48 |
| TTC38 | 1.01 |
| FSHB | 0.73 |
| ADD2 | 2.08 |
| HYAL4 | 1.17 |
| SCGN | 1.53 |
| ZIC4 | 0.91 |
| CSMD1 | 0.61 |
| NFE2L3 | 1.09 |
| PLEKHJ1 | 1.02 |
| ACOT9 | 0.99 |
| CASP9 | 1.03 |
| MASTL | 0.87 |
| SLC4A9 | 0.93 |
| MAZ | 0.98 |
| WRNIP1 | 1.08 |
| GRAP2 | 0.98 |
| THAP11 | 0.97 |
| PCDHA10 | 1.16 |
| FAS | 0.88 |
| VDR | 1.19 |
| RELT | 1.13 |
| ACTG2 | 0.88 |
| SLC30A9 | 1.05 |
| ADGRE4P | 1.29 |
| ESRP1 | 1 |
